In PMC10163288:
The other results are listed elsewhere or left out.

B1: il2ra_site2_3nfp_sap_26_mot_HHH_b1_05331_af2_000000251_0001_22_38_H_._HHH_b1_04986_0001_0000400006_0000001_0_0001_af2pred_0001_af2pred (protein)
chain: SSSSDVEERIEELLRQVEELIEKGDPEEAEKLLREAALLAVENNDFEAFALVLNLREKLHSSSSS
B2: il2ra_site2_2erj_sap_5_mot_HHH_b1_07788_af2_000000168_0001_1_20_H_._HHH_b1_03903_0001_0000100003_0000001_0_0001 (protein)
chain: SSSSSAVEELAEALIRTLEKEGDPESAERVEELLEELREKGDPRVEEELARLIWELLRERFSSSS
B3: il2ra_site2_2erj_sap_30_mot_HHH_b2_06851_000000004_0001_39_52_H_._30a957c732f18e89bfa64a8137c0e7c2_0001_1_0001_0000200007_0000001_0_0001 (protein)
chain: SSSSSELRRLYELAVEIAHALARGDEEETRKAIEEAEELAEELDSENAKEILEQLERLVNSSSSS
B4: il2ra_site1_1z92_sap_14_mot_1314d61ee722589b4fd511cf1ceb5c8f_0001_000000256_0001_17_32_H_._HHH_b1_00763_af2_0001_0000600105_0000001_0_0001_af2pred_0001_af2pred_ … (protein)
chain: SSSSDEEEELVRKIVEEYGGDEAVERDAERFARFAKEKGVSEESIEKNLRRVVEIAVRIDNSSSS
B5: il2ra_site2_3nfp_normal_mot_HHH_b2_05281_000000198_0001_39_56_H_._HHH_b2_08293_0001_0000100004_0000001_0_af2pred_0001_af2pred (protein)
chain: SSSSSDEEEQRVRELIEEAEHIEDPEEFREVLAEATRIATEANDPELFHLIAEVFLKFHGSSSSS
B6: il2ra_site1_3nfp_normal_mot_HHH_b1_02637_af2_000000013_0001_1_18_H_._HHH_b1_07972_af2_0001_0000300021_0000001_0_af2pred_dldesign_0_af2pred (protein)
chain: SSSSSPREEVERLIKEASELAKAGKNEEALKLLEEALKLAEKLGAKATTKFIKRCIKILKSSSSS
B7: il2ra_site1_2b5i_normal_mot_f5ff40796168375b462bec8614a1db4a_0001_1_000000138_0001_53_65_H_._HHH_b1_02204_0001_0000500049_0000001_0_af2pred_dldesign_0_af2pred (protein)
chain: SSSSDPGAVDLARELFEEARRVEDPRERLRLLRLALRAARKGKDEELVAEIEAEIAEVLESSSSS
B8: il2ra_site2_3nfp_normal_mot_HHH_b1_02962_000000041_0001_43_56_H_._HHH_b2_06621_af2_0001_0000200008_0000001_0 (protein)
chain: SSSSSLEEEVERLLEEAEKAVENGNPEEARRLLQEATELAFRANNPELFFLIAELLFKLNQSSSS
B9: il2ra_site1_3nfp_normal_mot_7f2fc9564206058543fe500fefea0e08_0001_000000219_0001_1_13_H_._3b4a64fcac932a42eec55da33af97b30_0001_1_af2_0001_0000100003_0000001_0_ … (protein)
chain: DEEAKERVEEALERGDPELALEILKELAEKRNSRAAKRLLELLERLLRVDPEAVLRIIKKALRAL
B10: il2ra_site2_2erj_normal_mot_HHH_b1_02968_000000142_0001_22_39_H_._HHH_b2_06818_0001_0000300018_0000001_0 (protein)
chain: SSSSSSDVEEQVERLLEEAERIEDLREVYRLAVEALHLAAEARDQELLRLIWEVVERVSSSSSSS

biological target: il2ra, P01589; assay: yeast display titration

Apparent Kd, inactive:
B1 no binding seen
B2 no binding seen
B3 no binding seen
B4 no binding seen
B5 no binding seen
B6 no binding seen
B7 no binding seen
B8 no binding seen
B9 no binding seen
B10 no binding seen

Retrieved one by one from above:
Apparent Kd, inactive:
B8 no binding seen
B4 no binding seen
